Results taken from article doi:10.1101/695577.
Where two headings read alike, the source gives them in different places. Results are given in words; binding and its absence hold for the method and conditions named. Binding seen in cells or lysates may run through a third protein. Some results given as binding are weak or reduced against the parent protein; the word gives no strength. For some of these results: Where a sequence is shown, tags or fusion partners need not be part of it.

By UniProt entry, the sequences of proteins in these tests, tags left out.
UniProt Q15388: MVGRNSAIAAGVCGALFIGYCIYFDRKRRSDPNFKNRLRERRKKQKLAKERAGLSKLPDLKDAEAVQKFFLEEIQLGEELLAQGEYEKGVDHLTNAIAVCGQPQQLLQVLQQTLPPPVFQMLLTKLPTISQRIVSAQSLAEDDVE

Experiments:
[1] = target: T1, ORP8 (endogenous) (human (endogenous in HeLa)) (UniProt Q9BZF1); test: proximity ligation
T1 sequence: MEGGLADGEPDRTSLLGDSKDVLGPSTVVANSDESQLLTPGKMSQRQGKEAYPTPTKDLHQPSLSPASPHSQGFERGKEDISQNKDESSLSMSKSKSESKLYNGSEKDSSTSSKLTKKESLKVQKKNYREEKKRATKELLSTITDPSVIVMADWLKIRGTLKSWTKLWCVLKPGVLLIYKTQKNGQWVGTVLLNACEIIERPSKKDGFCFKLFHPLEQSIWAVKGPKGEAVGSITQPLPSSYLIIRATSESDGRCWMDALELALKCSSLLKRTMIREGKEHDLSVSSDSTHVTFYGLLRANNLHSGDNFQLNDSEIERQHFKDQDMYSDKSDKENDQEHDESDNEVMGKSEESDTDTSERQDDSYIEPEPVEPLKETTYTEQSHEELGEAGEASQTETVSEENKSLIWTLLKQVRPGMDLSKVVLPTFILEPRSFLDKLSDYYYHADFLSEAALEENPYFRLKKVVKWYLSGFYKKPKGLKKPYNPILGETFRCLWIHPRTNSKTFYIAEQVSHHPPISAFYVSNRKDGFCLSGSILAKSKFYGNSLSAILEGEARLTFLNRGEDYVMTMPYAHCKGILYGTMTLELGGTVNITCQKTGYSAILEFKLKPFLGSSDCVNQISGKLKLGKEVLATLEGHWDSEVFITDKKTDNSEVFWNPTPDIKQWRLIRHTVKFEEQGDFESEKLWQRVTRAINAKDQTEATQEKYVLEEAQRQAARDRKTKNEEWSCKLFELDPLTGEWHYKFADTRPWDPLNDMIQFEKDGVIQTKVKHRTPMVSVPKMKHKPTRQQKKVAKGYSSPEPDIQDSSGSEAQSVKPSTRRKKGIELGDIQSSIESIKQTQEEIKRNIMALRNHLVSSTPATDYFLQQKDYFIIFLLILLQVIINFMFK

[2] = target: T2, ORP5 (endogenous) (human (endogenous in HeLa)) (UniProt Q9H0X9); test: proximity ligation
T2 sequence: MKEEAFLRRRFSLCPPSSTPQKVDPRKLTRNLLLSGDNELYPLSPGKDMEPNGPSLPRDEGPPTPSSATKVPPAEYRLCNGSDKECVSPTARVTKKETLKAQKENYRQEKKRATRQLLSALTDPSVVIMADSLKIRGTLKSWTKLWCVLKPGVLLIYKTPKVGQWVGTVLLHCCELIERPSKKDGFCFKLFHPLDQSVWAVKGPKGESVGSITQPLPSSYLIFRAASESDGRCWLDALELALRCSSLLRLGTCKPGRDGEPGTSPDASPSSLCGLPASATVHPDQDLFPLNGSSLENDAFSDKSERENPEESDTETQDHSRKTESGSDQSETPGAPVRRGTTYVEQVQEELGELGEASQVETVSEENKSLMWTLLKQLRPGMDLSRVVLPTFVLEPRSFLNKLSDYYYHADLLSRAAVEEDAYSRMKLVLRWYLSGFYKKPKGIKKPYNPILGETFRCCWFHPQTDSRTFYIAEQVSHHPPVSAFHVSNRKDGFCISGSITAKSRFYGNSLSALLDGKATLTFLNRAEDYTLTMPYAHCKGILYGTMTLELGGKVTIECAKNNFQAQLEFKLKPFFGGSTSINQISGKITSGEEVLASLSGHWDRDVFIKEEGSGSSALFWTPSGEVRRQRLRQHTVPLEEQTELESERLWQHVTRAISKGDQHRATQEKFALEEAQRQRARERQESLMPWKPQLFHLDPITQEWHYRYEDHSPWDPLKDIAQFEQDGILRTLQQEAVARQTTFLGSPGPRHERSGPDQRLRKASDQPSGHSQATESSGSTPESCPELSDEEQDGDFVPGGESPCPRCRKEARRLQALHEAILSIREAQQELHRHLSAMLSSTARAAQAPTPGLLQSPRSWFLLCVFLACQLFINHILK

[3] = target: T2, ORP5 (endogenous) (human (endogenous in HeLa)); test: proximity ligation; remark: listed apart in the source
[4] = target: T1, ORP8 (endogenous) (human (endogenous in HeLa)); test: proximity ligation; remark: listed apart in the source
EGFP-ORP5 = target: T3, EGFP-ORP5 (UniProt Q9H0X9); test: co-IP
T3 sequence: T2 sequence

EGFP-ORP8 = target: T4, EGFP-ORP8 (UniProt Q9BZF1); test: co-IP
T4 sequence: T1 sequence

HA-ORP5 = target: T5, HA-ORP5 (UniProt Q9H0X9); test: proximity ligation
T5 sequence: T2 sequence

**Q.** With “TOM20 (endogenous) (from UniProt Q15388 1-145)” as the molecule, how does the binding [1] read?
**A.** binds

**Q.** What about the binding [2] of the same molecule?
**A.** binds

B1: ORP8 (endogenous) (protein, UniProt Q9BZF1 1-889)
chain: T1 sequence
**Q.** Which binding [3] does the source give for B1 here?
**A.** binds

B2: SAM50 (endogenous) (protein, UniProt Q9Y512 1-469)
chain: MGTVHARSLEPLPSSGPDFGGLGEEAEFVEVEPEAKQEILENKDVVVQHVHFDGLGRTKDDIIICEIGDVFKAKNLIEVMRKSHEAREKLLRLGIFRQVDVLIDTCQGDDALPNGLDVTFEVTELRRLTGSYNTMVGNNEGSMVLGLKLPNLLGRAEKVTFQFSYGTKETSYGLSFFKPRPGNFERNFSVNLYKVTGQFPWSSLRETDRGMSAEYSFPIWKTSHTVKWEGVWRELGCLSRTASFAVRKESGHSLKSSLSHAMVIDSRNSSILPRRGALLKVNQELAGYTGGDVSFIKEDFELQLNKQLIFDSVFSASFWGGMLVPIGDKPSSIADRFYLGGPTSIRGFSMHSIGPQSEGDYLGGEAYWAGGLHLYTPLPFRPGQGGFGELFRTHFFLNAGNLCNLNYGEGPKAHIRKLAECIRWSYGAGIVLRLGNIARLELNYCVPMGVQTGDRICDGVQFGAGIRFL
**Q.** Which binding [4] does the source give for B2 here?
**A.** binds

**Q.** What about the binding (EGFP-ORP5) of the same molecule?
**A.** binds

**Q.** And the binding (EGFP-ORP8)?
**A.** binds

B3: 3XFLAG-ORP8 (protein, UniProt Q9BZF1 1-889)
chain: T1 sequence
**Q.** For B3, which binding (HA-ORP5) is on record?
**A.** binds
